Results are given in words; binding and its absence hold for the method and conditions named. Some binding calls cover weakened binding; strength is not graded here.
How the values were obtained:
[1] = molecular target: Mouse type II collagen (mouse) (UniProt P28481); experiment: in vivo optical imaging, ROI fluorescence of mouse knee
[2] = molecular target: Mouse type II collagen (mouse) (UniProt P28481); experiment: ELISA on type II collagen
[3] = molecular target: Native bovine type II collagen (bovine) (UniProt P02459); experiment: ELISA on type II collagen
[4] = molecular target: Human type II collagen (human) (UniProt P02458); experiment: ELISA on type II collagen
[5] = molecular target: Mouse type II collagen (mouse) (UniProt P28481); experiment: in vivo optical imaging of fluorescent antibody in mechanically loaded mouse knee

Chains of the proteins cited; added tags and fusions are not shown. Residues count along the entry.
UniProt P28481, residues 201-1214: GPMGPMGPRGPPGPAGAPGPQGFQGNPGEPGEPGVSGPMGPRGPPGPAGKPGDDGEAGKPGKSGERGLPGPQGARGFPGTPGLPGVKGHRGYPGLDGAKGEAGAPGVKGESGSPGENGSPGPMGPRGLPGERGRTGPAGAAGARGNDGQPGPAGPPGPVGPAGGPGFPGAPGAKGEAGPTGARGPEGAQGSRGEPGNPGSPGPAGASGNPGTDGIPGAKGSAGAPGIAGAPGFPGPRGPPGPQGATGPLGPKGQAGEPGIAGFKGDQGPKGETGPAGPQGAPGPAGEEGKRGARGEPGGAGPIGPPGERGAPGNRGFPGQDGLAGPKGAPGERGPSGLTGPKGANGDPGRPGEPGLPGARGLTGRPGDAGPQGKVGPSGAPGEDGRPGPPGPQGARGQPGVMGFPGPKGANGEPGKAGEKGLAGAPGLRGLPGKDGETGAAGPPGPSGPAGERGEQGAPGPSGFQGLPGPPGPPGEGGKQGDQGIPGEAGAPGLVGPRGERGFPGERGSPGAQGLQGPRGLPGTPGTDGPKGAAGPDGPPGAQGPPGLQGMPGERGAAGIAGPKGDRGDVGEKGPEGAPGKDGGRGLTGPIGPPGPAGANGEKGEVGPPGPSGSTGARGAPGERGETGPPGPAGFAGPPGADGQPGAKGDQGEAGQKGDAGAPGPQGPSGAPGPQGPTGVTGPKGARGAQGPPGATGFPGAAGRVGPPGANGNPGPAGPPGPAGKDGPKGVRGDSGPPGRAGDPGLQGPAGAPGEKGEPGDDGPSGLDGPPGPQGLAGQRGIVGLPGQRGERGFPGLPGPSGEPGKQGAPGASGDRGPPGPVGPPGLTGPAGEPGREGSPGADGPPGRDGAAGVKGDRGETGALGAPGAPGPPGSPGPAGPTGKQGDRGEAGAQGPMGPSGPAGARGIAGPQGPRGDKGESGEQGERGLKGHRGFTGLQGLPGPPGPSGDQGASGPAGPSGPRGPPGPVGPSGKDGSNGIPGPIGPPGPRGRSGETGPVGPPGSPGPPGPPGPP
UniProt P02459, residues 201-1214: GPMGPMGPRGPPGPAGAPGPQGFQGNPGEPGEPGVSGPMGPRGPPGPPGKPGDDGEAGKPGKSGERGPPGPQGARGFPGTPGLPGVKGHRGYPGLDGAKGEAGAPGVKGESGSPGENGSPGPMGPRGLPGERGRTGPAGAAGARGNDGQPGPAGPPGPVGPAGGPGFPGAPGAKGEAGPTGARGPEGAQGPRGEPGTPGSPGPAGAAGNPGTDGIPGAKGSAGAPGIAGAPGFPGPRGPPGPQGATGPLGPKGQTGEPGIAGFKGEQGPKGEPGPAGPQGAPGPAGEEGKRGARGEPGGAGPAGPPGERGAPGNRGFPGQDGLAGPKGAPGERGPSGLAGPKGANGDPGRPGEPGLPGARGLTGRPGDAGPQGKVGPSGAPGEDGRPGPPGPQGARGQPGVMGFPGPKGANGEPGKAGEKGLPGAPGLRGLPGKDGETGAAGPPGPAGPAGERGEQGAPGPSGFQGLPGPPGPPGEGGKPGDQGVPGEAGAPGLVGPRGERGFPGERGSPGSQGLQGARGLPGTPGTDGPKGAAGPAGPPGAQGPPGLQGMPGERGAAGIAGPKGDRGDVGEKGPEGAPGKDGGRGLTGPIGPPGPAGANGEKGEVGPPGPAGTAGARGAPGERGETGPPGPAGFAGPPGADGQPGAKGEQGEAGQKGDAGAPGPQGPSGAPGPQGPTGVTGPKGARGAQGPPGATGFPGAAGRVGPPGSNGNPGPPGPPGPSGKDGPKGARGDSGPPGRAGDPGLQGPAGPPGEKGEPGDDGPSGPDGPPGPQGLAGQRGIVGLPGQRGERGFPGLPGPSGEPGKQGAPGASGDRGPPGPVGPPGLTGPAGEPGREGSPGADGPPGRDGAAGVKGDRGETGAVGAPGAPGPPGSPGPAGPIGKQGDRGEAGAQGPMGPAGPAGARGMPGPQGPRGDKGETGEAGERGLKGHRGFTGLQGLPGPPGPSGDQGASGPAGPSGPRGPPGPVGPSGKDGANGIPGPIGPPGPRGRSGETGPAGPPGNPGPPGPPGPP
UniProt P02458, residues 201-1214: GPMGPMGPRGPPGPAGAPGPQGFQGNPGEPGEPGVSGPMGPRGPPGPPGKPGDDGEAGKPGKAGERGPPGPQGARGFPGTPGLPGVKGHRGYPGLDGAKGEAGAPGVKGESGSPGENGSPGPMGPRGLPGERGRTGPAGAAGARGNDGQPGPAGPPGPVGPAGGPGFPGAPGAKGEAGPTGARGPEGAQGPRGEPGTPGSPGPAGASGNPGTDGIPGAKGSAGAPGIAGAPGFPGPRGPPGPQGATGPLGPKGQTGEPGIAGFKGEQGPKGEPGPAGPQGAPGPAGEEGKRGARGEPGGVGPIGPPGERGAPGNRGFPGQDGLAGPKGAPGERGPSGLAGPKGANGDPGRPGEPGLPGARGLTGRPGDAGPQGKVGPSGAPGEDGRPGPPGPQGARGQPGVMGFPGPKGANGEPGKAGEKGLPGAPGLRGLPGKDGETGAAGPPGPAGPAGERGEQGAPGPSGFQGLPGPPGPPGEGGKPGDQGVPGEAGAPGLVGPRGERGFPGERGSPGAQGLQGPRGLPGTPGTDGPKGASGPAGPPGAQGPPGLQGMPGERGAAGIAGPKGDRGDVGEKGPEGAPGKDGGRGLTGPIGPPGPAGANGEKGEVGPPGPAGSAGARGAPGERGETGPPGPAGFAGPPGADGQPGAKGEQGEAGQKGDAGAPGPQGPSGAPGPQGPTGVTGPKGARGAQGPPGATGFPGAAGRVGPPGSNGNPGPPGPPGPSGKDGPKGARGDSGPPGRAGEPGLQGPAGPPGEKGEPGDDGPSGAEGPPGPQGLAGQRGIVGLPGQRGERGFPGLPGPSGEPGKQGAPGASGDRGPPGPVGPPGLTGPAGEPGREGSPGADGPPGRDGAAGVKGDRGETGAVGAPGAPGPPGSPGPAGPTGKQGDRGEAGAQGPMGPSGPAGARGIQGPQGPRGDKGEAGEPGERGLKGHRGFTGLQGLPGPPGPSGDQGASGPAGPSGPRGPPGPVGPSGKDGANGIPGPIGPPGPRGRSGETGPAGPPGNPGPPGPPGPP

Measured: binding

B1: E4 monoclonal antibody to type II collagen (MabCII, clone E4-D4) (antibody, mouse IgG2a, kappa, V domains shown)
VH: EVQLVESGGGLVKPGGSLKVSCEASGFTFSDYGMHWVRQAPEKGLEWVAYISSVSSTIYYADTVEGRFTISRDNVRNTLFLQMTSLRSEDTAMYYCAREGWLPLFAFWGQGTLVTVSA
VL: DIVLTQSHKFMSTSVGDRVSITCKASQDVSITVAWYQQKPGQSPKLLIYSASYRNPGVPDRFTGSGSGTDFNFTISTVQAEDLAVYYCQQYYIIPWTFGGGTKLEFKR
binds: all assays above
